The results in this text go back to PMC10455450.

Protein sequences, listed by entry. Tags and fused reporters are not part of them.
UniProt Q9NZJ0: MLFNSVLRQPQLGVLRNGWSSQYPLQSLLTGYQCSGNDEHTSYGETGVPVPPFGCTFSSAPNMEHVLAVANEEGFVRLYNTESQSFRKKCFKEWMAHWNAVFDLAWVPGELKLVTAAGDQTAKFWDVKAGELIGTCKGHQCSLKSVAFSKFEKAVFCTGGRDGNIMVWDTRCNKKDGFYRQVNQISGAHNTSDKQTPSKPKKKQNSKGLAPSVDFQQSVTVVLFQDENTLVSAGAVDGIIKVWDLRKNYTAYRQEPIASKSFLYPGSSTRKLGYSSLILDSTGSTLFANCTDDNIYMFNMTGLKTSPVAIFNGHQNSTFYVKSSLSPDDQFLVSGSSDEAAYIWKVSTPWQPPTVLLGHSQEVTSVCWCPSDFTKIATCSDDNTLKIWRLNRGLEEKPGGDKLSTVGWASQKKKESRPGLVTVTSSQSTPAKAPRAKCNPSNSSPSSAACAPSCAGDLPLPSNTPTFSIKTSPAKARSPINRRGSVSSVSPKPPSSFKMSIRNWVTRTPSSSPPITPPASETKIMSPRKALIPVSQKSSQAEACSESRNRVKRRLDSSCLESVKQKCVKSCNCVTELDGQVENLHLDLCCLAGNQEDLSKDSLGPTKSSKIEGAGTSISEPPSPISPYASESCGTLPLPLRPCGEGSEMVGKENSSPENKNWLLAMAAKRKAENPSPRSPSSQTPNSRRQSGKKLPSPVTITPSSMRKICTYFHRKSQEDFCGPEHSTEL
UniProt Q96GC9: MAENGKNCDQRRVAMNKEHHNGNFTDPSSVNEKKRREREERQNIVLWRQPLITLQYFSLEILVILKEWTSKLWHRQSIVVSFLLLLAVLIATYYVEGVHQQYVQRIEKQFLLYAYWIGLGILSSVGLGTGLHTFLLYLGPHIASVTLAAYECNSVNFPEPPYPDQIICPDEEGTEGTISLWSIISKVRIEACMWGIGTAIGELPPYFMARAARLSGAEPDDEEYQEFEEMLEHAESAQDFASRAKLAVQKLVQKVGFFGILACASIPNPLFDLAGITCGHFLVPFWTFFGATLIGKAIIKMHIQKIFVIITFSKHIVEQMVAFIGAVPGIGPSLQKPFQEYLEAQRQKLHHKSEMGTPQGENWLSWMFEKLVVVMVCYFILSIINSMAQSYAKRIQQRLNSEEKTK

These are yes or no findings as the source states them, for the method shown. Binding seen in cells or lysates may run through a third protein. Here binding means that the protein was enriched with, or labelled near, the bait; the list need not be complete. For some assays here: A no says only that the protein was not detected with the bait.

Assay [1] concerns the target FLAG–HA–Cdt2 (cell division cycle protein cdt2, from pcDNA3–2xFLAG–2xHA–Cdt2) (human) (UniProt Q9NZJ0). The experiment in a line: affinity purification with mass spectrometry; HEK293T transfected with Flag–HA-tagged Cdt2; chromatin cell extract; sequential immunoprecipitation with anti-FLAG (eluted with FLAG peptide) and anti-HA; mass spectrometry.
Assay [2] shares this target. The experiment in a line: affinity purification with mass spectrometry; HEK293T transfected with Flag–HA-tagged Cdt2; CSK-soluble fraction; sequential immunoprecipitation with anti-FLAG (eluted with FLAG peptide) and anti-HA; mass spectrometry.

Take “Vacuole Membrane Protein 1 (VMP1), endogenous (from UniProt Q96GC9 1-406)”: the binding entry in assay [1] was “no binding (only in the chromatin-linked fraction)”; in assay [2] it was “binds”.
